Measurements reported in patent publication US20260007597A1, “COMPOSITIONS AND METHODS FOR TREATMENT OF VIRUS-INDUCED AIRWAY FIBROSIS” (priority 2022, published 2026).
At least one compound was matched to its structure with a doubt left.

Tested on: SARS-COV-2 pseudovirus (pSARS-2) infected NHBE cells
Format: cell-based, human
Conditions: inhibitor added during clotting assay (5 U/ml hirudin, 5 μM dabigatran, 5 μM argatroban), turbidity 350 nm / confocal

Compound: [H]/N=C(/N)c1ccc(NCc2nc3cc(C(=O)N(CCC(=O)O)c4ccccn4)ccc3n2C)cc1 [dabigatran]
- infection-induced fibrin clot formation: inhibited
